Experimental data from US20030108992A1.
Results are given in words; binding and its absence hold for the method and conditions named. Some results given as binding are weak or reduced against the parent protein; the word gives no strength. Blank lines part the entries; values can stand above or below the substance they belong to.

By UniProt entry, the sequences of proteins in these tests, tags left out. Where a name states a change or a piece, a line headed by the entry shows the natural chain unless it says otherwise. Residues count along the entry.
UniProt P25942, residues 21-222: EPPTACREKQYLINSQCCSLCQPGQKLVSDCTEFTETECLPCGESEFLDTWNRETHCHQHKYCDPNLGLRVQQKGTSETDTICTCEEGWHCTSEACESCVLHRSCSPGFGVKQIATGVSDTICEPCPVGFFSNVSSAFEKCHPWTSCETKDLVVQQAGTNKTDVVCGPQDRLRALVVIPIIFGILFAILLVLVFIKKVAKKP
UniProt P20333, residues 23-76: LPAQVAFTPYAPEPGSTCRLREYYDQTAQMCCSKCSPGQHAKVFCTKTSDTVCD
UniProt O00220, residues 24-270: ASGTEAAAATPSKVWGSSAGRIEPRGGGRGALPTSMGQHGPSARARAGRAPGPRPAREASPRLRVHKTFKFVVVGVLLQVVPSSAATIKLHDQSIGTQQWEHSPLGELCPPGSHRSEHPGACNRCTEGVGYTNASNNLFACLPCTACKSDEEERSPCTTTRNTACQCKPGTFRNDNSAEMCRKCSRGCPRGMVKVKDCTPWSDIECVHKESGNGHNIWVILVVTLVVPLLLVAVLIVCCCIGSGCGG

Tests used:
[1] = molecular target: CD40 CFP and YFP chimeras (FIG. 3C) (UniProt P25942); experiment: flow cytometric FRET between CFP and YFP fusions
[2] = molecular target: N-terminal region of the ECD of p80 (UniProt P20333); experiment: yeast two-hybrid
[3] = molecular target: DR4 CFP and YFP chimeras (FIG. 3C) (UniProt O00220); experiment: flow cytometric FRET between CFP and YFP fusions

binding [1]: binds
Substance: CD40 CFP and YFP chimeras (FIG. 3C) (from UniProt P25942 21-222) (receptor)

binding [2]: binds
Substance: N-terminal region of the ECD of p80 (from UniProt P20333 23-76) (receptor)

binding [3]: binds
Substance: DR4 CFP and YFP chimeras (FIG. 3C) (from UniProt O00220 24-270) (receptor)
